Values from PubChem BioAssay AID1259308 (NCATS, 2017)
The deposit covers about 59,000 reagents; this is a part drawn at random. About 1,510 of all reagents (2.6%) were called active. 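Calls use total luciferase alone and ignore viability, so some active siRNAs may act by altering cell number.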 The numbers tell different reagents against one gene apart. Reagent sequences are not shown.

- Purpose: 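Candidate targets for better recombinant protein yield in mammalian cells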 (primary screen)
- Cell system: human HEK293 embryonic kidney cells stably expressing firefly luciferase (HEK-CMV-Luc2-Hygro)
- Reagent: single siRNA against human genes, 0.8 pmol siRNA per well
- Timing: 72 h
- Detection: 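Reporter luminescence and viable-cell signal on separate replicate plates, given as percent of non-targeting control and median/MAD z-scores, plus per-cell luciferase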
- Reading the numbers: total luciferase, z-score and total luciferase, % of control: higher = more reporter protein produced; luciferase per cell, z-score: higher = more reporter output per viable cell; viable cells, % of control: higher = more viable cells
- Active means: 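An siRNA counts as active if its total luciferase robust z-score exceeds 3; genes with two or more such siRNAs out of three were retested with fresh siRNAs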
- Meaning of the calls: active = raised luciferase; inactive = no rise

| Gene | reagent | total luciferase, z-score | total luciferase, % of control | luciferase per cell, z-score | viable cells, % of control | activity call |
| --- | --- | --- | --- | --- | --- | --- |
| OR10Z1 | 1 | 0.747 | 96.7 | 0.547 | 93.6 | inactive |
| OR10Z1 | 2 | -0.754 | 66.9 | -1.71 | 117 | inactive |
| OR10Z1 | 3 | -0.656 | 68.8 | -0.966 | 99.2 | inactive |
| LINC02458 | 1 | -0.146 | 79 | 0.2 | 83.7 | inactive |
| LINC02458 | 2 | -1.19 | 58.3 | -0.611 | 76.5 | inactive |
| LINC02458 | 3 | -1.56 | 50.8 | -1.48 | 83.8 | inactive |
| HINT1 | 1 | -0.024 | 81.4 | -0.32 | 99 | inactive |
| HINT1 | 2 | 0.0371 | 82.6 | -0.318 | 100 | inactive |
| HINT1 | 3 | -0.658 | 68.8 | -0.725 | 93.1 | inactive |
| ACP3 | 1 | 0.265 | 87.2 | 0.296 | 90.1 | inactive |
| ACP3 | 2 | 1.61 | 114 | 0.935 | 99.6 | inactive |
| ACP3 | 3 | 0.943 | 101 | -0.0401 | 114 | inactive |
| RTL8A | 1 | 1.16 | 105 | 1.36 | 82 | inactive |
| RTL8A | 2 | -0.765 | 66.7 | -0.513 | 85.3 | inactive |
| RTL8A | 3 | 0.914 | 100 | 0.443 | 99.5 | inactive |
| SLC12A4 | 1 | -0.335 | 75.2 | -0.573 | 97.8 | inactive |
| SLC12A4 | 2 | 0.0203 | 82.3 | -0.0782 | 93.9 | inactive |
| SLC12A4 | 3 | 1.69 | 115 | 0.53 | 112 | inactive |
| OXNAD1 | 1 | 1.07 | 103 | 1.38 | 80.1 | inactive |
| OXNAD1 | 2 | -0.366 | 74.6 | -0.324 | 90.8 | inactive |
| OXNAD1 | 3 | -0.555 | 70.8 | -0.688 | 94.9 | inactive |
| NIPSNAP1 | 1 | -2 | 42 | -2.2 | 83.8 | inactive |
| NIPSNAP1 | 2 | 0.933 | 100 | 2.23 | 62.4 | inactive |
| NIPSNAP1 | 3 | -0.579 | 70.4 | -0.42 | 87.8 | inactive |
| GLRX | 1 | -0.84 | 65.2 | -0.88 | 91.8 | inactive |
| GLRX | 2 | 0.724 | 96.3 | 0.0632 | 106 | inactive |
| GLRX | 3 | 1.31 | 108 | 1.16 | 88.8 | inactive |
| PRSS54 | 1 | -2.53 | 31.5 | -3.28 | 83.4 | inactive |
| PRSS54 | 2 | 0.27 | 87.3 | -0.312 | 106 | inactive |
| PRSS54 | 3 | -0.416 | 73.6 | -1.04 | 108 | inactive |
| ZBTB20 | 1 | -0.595 | 70 | -0.245 | 83.5 | inactive |
| ZBTB20 | 2 | -0.645 | 69 | -0.728 | 93.5 | inactive |
| ZBTB20 | 3 | 1.98 | 121 | 2.29 | 74 | inactive |
| AAAS | 1 | 1.21 | 106 | 0.549 | 102 | inactive |
| AAAS | 2 | -0.12 | 79.5 | -0.188 | 93.4 | inactive |
| AAAS | 3 | -0.242 | 77.1 | -0.178 | 90.3 | inactive |
| ZSCAN5C | 1 | 0.528 | 92.4 | 0.624 | 87.6 | inactive |
| ZSCAN5C | 2 | 0.221 | 86.3 | 0.825 | 77.6 | inactive |
| ZSCAN5C | 3 | -0.686 | 68.2 | -0.96 | 98.2 | inactive |
| OR5AC2 | 1 | -0.459 | 72.8 | -0.258 | 87 | inactive |
| OR5AC2 | 2 | 0.55 | 92.8 | -0.0149 | 104 | inactive |
| OR5AC2 | 3 | -0.1 | 79.9 | -0.403 | 99.3 | inactive |
| EIF2AK2 | 1 | -0.502 | 71.9 | -0.942 | 103 | inactive |
| EIF2AK2 | 2 | -0.557 | 70.8 | -1.14 | 107 | inactive |
| EIF2AK2 | 3 | -0.612 | 69.7 | -0.861 | 97.7 | inactive |
| USP13 | 1 | -0.135 | 79.2 | -0.419 | 98.8 | inactive |
| USP13 | 2 | -1.17 | 58.7 | -1.43 | 95.6 | inactive |
| USP13 | 3 | -0.0576 | 80.7 | -0.466 | 102 | inactive |
| NBAT1 | 1 | 2.48 | 131 | 3.11 | 64.6 | inactive |
| NBAT1 | 2 | 1.08 | 103 | 1.99 | 68.3 | inactive |
| NBAT1 | 3 | 0.303 | 87.9 | 0.293 | 91 | inactive |
| PCDHA9 | 1 | 0.217 | 86.2 | 0.775 | 78.5 | inactive |
| PCDHA9 | 2 | 0.748 | 96.8 | 0.48 | 95.3 | inactive |
| PCDHA9 | 3 | -1.71 | 47.9 | -0.205 | 56.4 | inactive |
| NT5C2 | 1 | -2.24 | 37.4 | -1.87 | 68.5 | inactive |
| NT5C2 | 2 | -0.544 | 71.1 | -0.824 | 98.6 | inactive |
| NT5C2 | 3 | 2.58 | 133 | 1.89 | 90.6 | inactive |

Laid out differently: results already given.
Gene,reagent,"total luciferase, z-score","total luciferase, % of control","luciferase per cell, z-score","viable cells, % of control",activity call
EIF2AK2,1,-0.502,71.9,-0.942,103,inactive
EIF2AK2,2,-0.557,70.8,-1.14,107,inactive
EIF2AK2,3,-0.612,69.7,-0.861,97.7,inactive
USP13,1,-0.135,79.2,-0.419,98.8,inactive
USP13,2,-1.17,58.7,-1.43,95.6,inactive
